Values from PubChem BioAssay AID1259254 (NCATS, 2017)
Test: 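Genome-wide screen for genes that prevent DNA re-replication in cancer cells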 (primary screen). Cell system: human HCT116 colorectal cancer cells. Reagents: single siRNA against human genes. Time to read-out: 3 days. Measured: 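Imaged Hoechst DNA stain sorts each cell into a cycle phase by DNA amount; per plate, G2 fraction set to 0% for non-targeting and 100% for GMNN siRNA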. Scale: G2 robust z-score and G2 cells, % of GMNN control: higher = more G2 cells, more excess DNA replication; raw share of cells in G2: higher = larger share of cells with G2 DNA content. Rule for the call: 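Active siRNAs have a G2 robust z of 5 or more median absolute deviations over the median, which in these data means about 38% or higher of GMNN control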.
The deposit covers about 59,000 reagents; shown is a part drawn at random. About 1,550 of them (2.6%) count as active. 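G2 share is only a proxy for re-replication; each gene was hit by three separate siRNAs, and active genes were retested.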 The raw values are shown without normalisation. The numbers tell different reagents against one gene apart. Not given: the amount of reagent.

G2 robust z-score | G2 cells, % of GMNN control | raw share of cells in G2 (%) | outcome | gene | reagent no.
-0.849 | -3.01 | 4.8 | inactive | SSU72 (GeneID 29101) | 1
-0.657 | -1.66 | 3.64 | inactive | SSU72 (GeneID 29101) | 2
2.56 | 21 | 10.9 | inactive | SSU72 (GeneID 29101) | 3
-0.772 | -2.46 | 3.67 | inactive | THAP6 (GeneID 152815) | 1
-0.485 | -0.447 | 4.54 | inactive | THAP6 (GeneID 152815) | 2
-0.0292 | 2.76 | 7.27 | inactive | THAP6 (GeneID 152815) | 3
-0.713 | -2.05 | 4.99 | inactive | SPRR2G (GeneID 6706) | 1
-0.165 | 1.81 | 5.17 | inactive | SPRR2G (GeneID 6706) | 2
1.63 | 14.4 | 8.73 | inactive | SPRR2G (GeneID 6706) | 3
-0.651 | -1.61 | 3.42 | inactive | CCL11 (GeneID 6356) | 1
-0.276 | 1.03 | 6.03 | inactive | CCL11 (GeneID 6356) | 2
1.62 | 14.4 | 9.48 | inactive | CCL11 (GeneID 6356) | 3
-0.815 | -2.76 | 4.73 | inactive | CRY1 (GeneID 1407) | 1
-0.0535 | 2.59 | 6.13 | inactive | CRY1 (GeneID 1407) | 2
-0.942 | -3.66 | 2.51 | inactive | CRY1 (GeneID 1407) | 3
0.752 | 8.26 | 6.94 | inactive | CDC34 (GeneID 997) | 1
-0.451 | -0.209 | 4.89 | inactive | CDC34 (GeneID 997) | 2
0.497 | 6.46 | 7.35 | inactive | CDC34 (GeneID 997) | 3
6.64 | 49.7 | 23.6 | active | LPAR5 (GeneID 57121) | 1
0.961 | 9.73 | 7.92 | inactive | LPAR5 (GeneID 57121) | 2
-0.767 | -2.43 | 2.52 | inactive | LPAR5 (GeneID 57121) | 3
-0.502 | -0.566 | 5.69 | inactive | SRSF12 (GeneID 135295) | 1
0.478 | 6.33 | 7.02 | inactive | SRSF12 (GeneID 135295) | 2
-0.839 | -2.94 | 3.47 | inactive | SRSF12 (GeneID 135295) | 3
-0.868 | -3.14 | 2.78 | inactive | C19orf25 (GeneID 148223) | 1
0.816 | 8.71 | 5.6 | inactive | C19orf25 (GeneID 148223) | 2
-0.196 | 1.59 | 3.62 | inactive | C19orf25 (GeneID 148223) | 3
0.104 | 3.7 | 5.98 | inactive | NAA60 (GeneID 79903) | 1
-0.238 | 1.29 | 4.87 | inactive | NAA60 (GeneID 79903) | 2
-0.379 | 0.304 | 2.46 | inactive | NAA60 (GeneID 79903) | 3
1.44 | 13.1 | 9.08 | inactive | NIN (GeneID 51199) | 1
1.39 | 12.7 | 8.69 | inactive | NIN (GeneID 51199) | 2
-1.16 | -5.22 | 3.59 | inactive | NIN (GeneID 51199) | 3
0.985 | 9.9 | 10.4 | inactive | KLRF1 (GeneID 51348) | 1
0.884 | 9.19 | 7.64 | inactive | KLRF1 (GeneID 51348) | 2
0.254 | 4.75 | 5.62 | inactive | KLRF1 (GeneID 51348) | 3
2.39 | 19.8 | 10.9 | inactive | CD1E (GeneID 913) | 1
0.994 | 9.96 | 8.52 | inactive | CD1E (GeneID 913) | 2
-0.354 | 0.48 | 5.17 | inactive | CD1E (GeneID 913) | 3

Records above whose gene name starts with N or n:
G2 robust z-score | G2 cells, % of GMNN control | raw share of cells in G2 (%) | outcome | gene | reagent no.
0.104 | 3.7 | 5.98 | inactive | NAA60 (GeneID 79903) | 1
-0.238 | 1.29 | 4.87 | inactive | NAA60 (GeneID 79903) | 2
-0.379 | 0.304 | 2.46 | inactive | NAA60 (GeneID 79903) | 3
1.44 | 13.1 | 9.08 | inactive | NIN (GeneID 51199) | 1
1.39 | 12.7 | 8.69 | inactive | NIN (GeneID 51199) | 2
-1.16 | -5.22 | 3.59 | inactive | NIN (GeneID 51199) | 3

Continued:
G2 robust z-score | G2 cells, % of GMNN control | raw share of cells in G2 (%) | outcome | gene | reagent no.
2.73 | 22.2 | 11.5 | inactive | ISG20L2 (GeneID 81875) | 1
0.135 | 3.92 | 4.62 | inactive | ISG20L2 (GeneID 81875) | 2
0.239 | 4.65 | 3.82 | inactive | ISG20L2 (GeneID 81875) | 3
1.57 | 14 | 10.1 | inactive | ADD3 (GeneID 120) | 1
-0.214 | 1.46 | 4.54 | inactive | ADD3 (GeneID 120) | 2
-1.22 | -5.63 | 2.8 | inactive | ADD3 (GeneID 120) | 3
-1.48 | -7.43 | 1.56 | inactive | PHGDH (GeneID 26227) | 1
-1.5 | -7.58 | 1.67 | inactive | PHGDH (GeneID 26227) | 2
1.26 | 11.8 | 11.5 | inactive | PHGDH (GeneID 26227) | 3
0.824 | 8.77 | 8.62 | inactive | MMP20 (GeneID 9313) | 1
-0.738 | -2.22 | 4.12 | inactive | MMP20 (GeneID 9313) | 2
-0.929 | -3.57 | 2.58 | inactive | MMP20 (GeneID 9313) | 3
2.84 | 23 | 12.4 | inactive | IFNWP2 (GeneID 646581) | 1
1.42 | 12.9 | 8.03 | inactive | IFNWP2 (GeneID 646581) | 2
-0.653 | -1.63 | 2.53 | inactive | IFNWP2 (GeneID 646581) | 3
-0.784 | -2.55 | 3.16 | inactive | LINC02120 (GeneID 340113) | 1
-0.93 | -3.57 | 2.76 | inactive | LINC02120 (GeneID 340113) | 2
-0.389 | 0.228 | 3.36 | inactive | LINC02120 (GeneID 340113) | 3
2.74 | 22.2 | 12.9 | inactive | DLX2 (GeneID 1746) | 1
0.24 | 4.65 | 6.69 | inactive | DLX2 (GeneID 1746) | 2
1.42 | 13 | 8.56 | inactive | DLX2 (GeneID 1746) | 3
-0.967 | -3.84 | 3.48 | inactive | DNMBP (GeneID 23268) | 1
1.51 | 13.6 | 9.75 | inactive | DNMBP (GeneID 23268) | 2
-0.0334 | 2.73 | 4.2 | inactive | DNMBP (GeneID 23268) | 3
0.396 | 5.76 | 7.57 | inactive | USP9X (GeneID 8239) | 1
0.811 | 8.67 | 7.98 | inactive | USP9X (GeneID 8239) | 2
-0.755 | -2.35 | 3.04 | inactive | USP9X (GeneID 8239) | 3
-0.873 | -3.17 | 3.81 | inactive | COL4A2 (GeneID 1284) | 1
0.354 | 5.46 | 6.09 | inactive | COL4A2 (GeneID 1284) | 2
-0.17 | 1.77 | 4.22 | inactive | COL4A2 (GeneID 1284) | 3
